Test system: antibodies specifically reactive with the protein in serum
Assay: ELISA of serum antibody titer against recombinant PDS5A protein for cancer diagnosis
Format: binding, dog
Settings: 112 patient dogs, 30 healthy dogs; cut-off not less than twice the average value in healthy dogs; 94 samples
Description: Blood was collected from 112 patient dogs wherein malignant tumor was found and 30 healthy dogs, and sera were separated therefrom. Using the canine PDS5A protein (SEQ ID NO:2) prepared in the above-described (2), the titer of antibodies specifically reactive with the protein in each serum was measured by the ELISA method. Immobilization of the prepared protein was carried out by placing 100 μL/well of the recombinant protein solution diluted to 5 μg/mL with phosphate-buffered saline in a 96-well Immobilizer Amino plate (manufactured by Nunc), followed by leaving the plate to stand at 4° C. overnight. Blocking was carried out by adding 100 μL of 50 mM sodium bicarbonate buffer (pH 8.4) supplemented with 3% BSA (bovine serum albumin, manufactured by Sigma-Aldrich Co.) (hereinafter referred to as the blocking solution) to each well and shaking the plate at room temperature for 1 hour. The sera were 1000-fold diluted with the blocking solution and added to the wells in an amount of 100 μL/well, and the plate was shaken at room temperature for 3 hours to allow the reaction to proceed. […] Thereafter, 100 μl/well of 0.5 M sulfuric acid solution (manufactured by Sigma-Aldrich Japan) was added to the wells to stop the reaction, and the absorbance at 450 nm was measured using a microplate reader. […]

B1: canine recombinant PDS5A protein: full-length canine PDS5A (SEQ ID NO:2) expressed in E. coli; given mixed with Freund's incomplete adjuvant (protein, listed as Canis familiaris)
chain: MDFTAQPKPATALCGVVSADGKIAYPPGVKEITDKITTDEMIKRLKMVVKTFMDMDQDSEDEKQQYLPLALHLASEFFLRNPNKDVRLLVACCLADIFRIYAPEAPYTSHDKLKDIFLFITRQLKGLEDTKSPQFNRYFYLLENLAWVKSYNICFELEDCNEIFIQLFRTLFSVINNSHNKKVQMHMLDLMSSIIMEGDGVTQELLDSILINLIPAHKNLNKQSFDLAKVLLKRTVQTIEACIANFFNQVLVLGRSSVSDLSEHVFDLIQELFAIDPHLLLSVMPQLEFKLKSNDGEERLAVVRLLAKLFGSKDSDLATQNRPLWQCFLGRFNDIHVPVRLESVKFASHCLMNHPDLAKDLTEYLKVRSHDPEEAIRHDVIVTIITAAKRDLALVNDQLLGFVRERTLDKRWRVRKEAMMGLAQLYKKYCLHGEAGKEAAEKVSWIKDKLLHIYYQNSIDDKLLVEKIFAQYLVPHNLETEERMKCLYYLYASLDPNAVKALNEMWKCQNMLRSHVRELLDLHKQPTSEANCSAMFGKLMTIAKNLPDPGKAQDFVKKFNQVLGDDEKLRSQLELLISPTCSCKQADVCVREIARKLANPKQPTNPFLEMVKFLLERIAPVHIDSEAISALVKLMNKSIEGTADDEEEGVSPDTAIRSGLELLKVLSFTHPTSFHSAETYESLLQCLRMEDDKVAEAAIQIFRNTGHKIETDLPQIRSTLIPILHQKAKRGTPHQAKQAVHCIHAIFTNKEVQLAQIFEPLSRSLNADVPEQLITPLVSLGHISMLAPDQFASPMKSVVANFIVKDLLMNDRSTGEKNGKLWSPDEEVSPEVLAKVQAIKLLVRWLLGMKNNQSKSANSTLRLLSAMLVSEGDLTEQKRISKSDMSRLRLAAGSAIMKLAQEPCYHEIITPEQFQLCALVINDECYQVRQIFAQKLHKALVKLLLPLEYMAIFALCAKDPVKERRAHARQCLLKNISIRREYIKQNPMATEKLLSLLPEYVVPYMIHLLAHDPDFTRSQDVDQLRDIKECLWFMLEVLMTKNENNSHAFMKKMAENIKLTKDAQSPDESKMNEKLYTVCDVALCVINSKSALCNADSPKDPVLPMKFFTQPEKDFCNDKSYISEETRVLLLTGKPKPAGVLGAVNKPLSATGRKPYVRSTGAETGSNINVNSELNPSTGNRSREQSSEAVETGVSENEENPVRIISVTPVKNIDPVKNKEINSDQTTQGNISSDRGKKRSVAAAGTENIQQKTDEKVDESGPPAPSKPRRGRRPKSESQGNATKNDDINKPLGKGRKRAAVSQESPGGLEAGNAKAPKLQDVAKKAVPAERQIDLQR
modifications: mixed with Freund's incomplete adjuvant
- malignant cases successfully diagnosed as malignant: 83.9%
